Test results: PMC6019448
Numbering of substitutions follows the chain as printed. These are yes or no findings as the source states them, for the method shown. For part of these data: In cells and extracts the contact can be indirect. Some entries that bind do so weakly or less than the wild type. For part of these data: Where a sequence is shown, tags or fusion partners need not be part of it. Each block holds one binder with its values, some of them ahead of it.

What was measured:
mouse RIG-I (mouse) = target: T1, mouse RIG-I (mouse) (UniProt Q6Q899); test: co-IP; 293T cells transfected with equal amounts of Flag- and Myc-tagged plasmids, lysed 24 h after transfection; anti-Flag IP with protein A + G agarose overnight at 4°C, Western blot with c-Myc antibody
T1 sequence: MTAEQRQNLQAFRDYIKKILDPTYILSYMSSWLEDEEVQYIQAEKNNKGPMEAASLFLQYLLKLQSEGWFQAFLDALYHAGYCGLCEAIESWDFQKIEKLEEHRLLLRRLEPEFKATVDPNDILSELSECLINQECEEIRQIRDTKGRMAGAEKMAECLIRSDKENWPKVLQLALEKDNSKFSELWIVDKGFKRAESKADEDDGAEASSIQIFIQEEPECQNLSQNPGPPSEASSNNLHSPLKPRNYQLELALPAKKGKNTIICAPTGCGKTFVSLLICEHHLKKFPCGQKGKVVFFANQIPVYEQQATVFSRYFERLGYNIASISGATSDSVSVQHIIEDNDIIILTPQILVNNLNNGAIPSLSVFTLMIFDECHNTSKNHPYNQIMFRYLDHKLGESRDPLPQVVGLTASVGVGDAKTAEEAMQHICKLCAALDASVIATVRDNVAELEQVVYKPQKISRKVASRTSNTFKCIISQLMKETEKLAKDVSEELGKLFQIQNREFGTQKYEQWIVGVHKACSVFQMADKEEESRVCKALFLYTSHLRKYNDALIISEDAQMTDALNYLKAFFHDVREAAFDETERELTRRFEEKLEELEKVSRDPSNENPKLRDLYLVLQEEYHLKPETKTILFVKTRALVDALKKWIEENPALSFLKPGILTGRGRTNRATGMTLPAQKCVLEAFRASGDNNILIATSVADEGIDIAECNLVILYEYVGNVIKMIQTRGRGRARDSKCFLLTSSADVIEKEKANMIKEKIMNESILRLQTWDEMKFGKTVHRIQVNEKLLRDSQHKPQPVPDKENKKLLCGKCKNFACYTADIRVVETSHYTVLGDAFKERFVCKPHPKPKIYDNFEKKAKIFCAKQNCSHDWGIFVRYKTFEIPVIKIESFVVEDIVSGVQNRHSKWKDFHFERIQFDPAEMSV

human RIG-I (human) = target: T2, human RIG-I (human) (UniProt O95786); test: as above
T2 sequence: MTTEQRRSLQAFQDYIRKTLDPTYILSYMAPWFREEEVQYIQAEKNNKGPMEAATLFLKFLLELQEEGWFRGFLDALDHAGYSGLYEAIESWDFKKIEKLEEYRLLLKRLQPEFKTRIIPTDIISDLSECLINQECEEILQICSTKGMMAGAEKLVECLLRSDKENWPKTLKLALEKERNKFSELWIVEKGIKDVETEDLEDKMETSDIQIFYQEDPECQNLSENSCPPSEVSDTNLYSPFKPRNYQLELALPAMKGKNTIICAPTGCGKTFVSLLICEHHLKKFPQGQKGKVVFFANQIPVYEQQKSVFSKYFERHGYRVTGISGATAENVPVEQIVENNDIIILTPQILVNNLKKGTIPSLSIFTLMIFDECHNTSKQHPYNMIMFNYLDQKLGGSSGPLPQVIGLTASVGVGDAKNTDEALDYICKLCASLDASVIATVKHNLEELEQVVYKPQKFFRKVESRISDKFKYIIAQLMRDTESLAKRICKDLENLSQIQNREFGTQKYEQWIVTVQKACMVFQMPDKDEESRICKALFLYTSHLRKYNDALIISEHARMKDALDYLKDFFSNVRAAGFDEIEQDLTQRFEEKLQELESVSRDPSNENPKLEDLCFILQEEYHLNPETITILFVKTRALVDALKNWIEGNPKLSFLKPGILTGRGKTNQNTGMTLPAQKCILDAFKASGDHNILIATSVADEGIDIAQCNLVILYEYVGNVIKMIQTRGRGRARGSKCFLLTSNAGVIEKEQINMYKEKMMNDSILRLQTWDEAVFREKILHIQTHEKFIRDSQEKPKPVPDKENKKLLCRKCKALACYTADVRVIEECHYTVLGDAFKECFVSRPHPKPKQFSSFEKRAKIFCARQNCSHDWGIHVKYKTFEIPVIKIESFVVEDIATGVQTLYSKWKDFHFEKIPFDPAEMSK

[1] = target: T3, duck RIG-I, Gal4 DNA-binding domain fusion (bait) (duck) (UniProt D3TI84); test: two-hybrid; full-length RIG-I as Gal4 DNA-binding domain bait (pGBKT7), OASL proteins as prey (pGADT7), S. cerevisiae AH109; selection on double-, triple- and quadruple-dropout medium
T3 sequence: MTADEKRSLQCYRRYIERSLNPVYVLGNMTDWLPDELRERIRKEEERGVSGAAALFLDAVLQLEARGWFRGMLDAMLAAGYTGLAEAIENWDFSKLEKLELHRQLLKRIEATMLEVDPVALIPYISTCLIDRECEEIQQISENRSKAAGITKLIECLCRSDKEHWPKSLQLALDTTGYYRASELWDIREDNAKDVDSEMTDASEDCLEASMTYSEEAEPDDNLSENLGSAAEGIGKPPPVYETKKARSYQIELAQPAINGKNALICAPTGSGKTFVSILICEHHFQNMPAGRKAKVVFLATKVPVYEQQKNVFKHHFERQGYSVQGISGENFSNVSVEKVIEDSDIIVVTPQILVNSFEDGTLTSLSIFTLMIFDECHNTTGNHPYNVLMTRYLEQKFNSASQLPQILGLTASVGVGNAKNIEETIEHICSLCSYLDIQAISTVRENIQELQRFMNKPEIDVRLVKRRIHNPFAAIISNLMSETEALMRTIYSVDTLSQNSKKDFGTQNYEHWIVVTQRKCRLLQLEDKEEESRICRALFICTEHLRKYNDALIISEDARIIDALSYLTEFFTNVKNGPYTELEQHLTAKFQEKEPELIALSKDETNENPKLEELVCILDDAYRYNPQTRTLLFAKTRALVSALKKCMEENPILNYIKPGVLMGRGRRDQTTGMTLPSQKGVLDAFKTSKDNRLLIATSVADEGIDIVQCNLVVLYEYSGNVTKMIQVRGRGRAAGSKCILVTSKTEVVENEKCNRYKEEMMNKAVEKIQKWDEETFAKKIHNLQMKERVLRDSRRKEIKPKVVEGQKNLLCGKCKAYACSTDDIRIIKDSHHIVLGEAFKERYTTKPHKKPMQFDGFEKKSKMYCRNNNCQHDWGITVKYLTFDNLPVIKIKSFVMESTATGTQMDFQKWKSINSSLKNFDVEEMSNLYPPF

- binding (mouse RIG-I (mouse)): binds
B1: mouse Oasl2 (protein, UniProt Q9Z2F2 1-508)
chain: MDPFPDLYATPGDSLDHFLEHSLQPQRDWKEEGQDAWERIERFFREQCFRDELLLDQEVRVIKVVKGGSSGKGTTLNHRSDQDMILFLSCFSSFEEQARNREVVISFIKKRLIHCSRSLAYNIIVLTHREGKRAPRSLTLKVQSRKTDDIIWMDILPAYDALGPISRDSKPAPAIYETLIRSKGYPGDFSPSFTELQRHFVKTRPVKLKNLLRLVKFWYLQCLRRKYGRGAVLPSKYALELLTIYAWEMGTESSDSFNLDEGFVAVMELLVNYRDICIYWTKYYNFQNEVVRNFLKKQLKGDRPIILDPADPTNNLGRRKGWEQVAAEAAFCLLQVCCTTVGPSERWNVQRARDVQVRVKQTGTVDWTLWTNPYSPIRKMKAEIRREKNFGGELRISFQEPGGERQLLSSRKTLADYGIFSKVNIQVLETFPPEILVFVKYPGGQSKPFTIDPDDTILDLKEKIEDAGGPCAEDQVLLLDDEELEDDESLKELEIKDCDTIILIRVID

- binding (human RIG-I (human)): binds
B2: human OASL-3D (protein, UniProt Q15646 1-514)
chain: MALMQELYSTPASRLDSFVAQWLQPHREWKEEVLDAVRTVEEFLRQEHFQGKRGLDQDVRVLKVVKVGSFGNGTVLRSTRDVDLVAFLSCFHSFQEAAKHHKDVLRLIWKTMWQSQDLLDLGLEDLRMEQRVPDALVFTIQTRGTAEPITVDIVPAYRALGPSLPNSQPPPEVYVSLIKACGGPGNFCPSFSELQRNFVKHRPTKLKSLLRLVKHWYQQYVKARSPRANLPPLYALELLTIYAWEMGTEEDENFMLDEGFTTVMDLLLEYEVICIYWTKYYTLHNAIIEDCVRKQLKKERPIILDPADPTLNVAEGYRWDIVAQRASQCLKQDCCYDNRENPISSWNVKRARDIHLTVEQRGYPDFNLIVNPYEPIRKVKEKIRRTRGYSGLQRLSFQVPGSERQLLSSRCSLAKYGIFSHTHIYLLETIPSEIQVFVKNPDGGSYAYAINPNSFILGLKQQIEDQQGLPKKQQQLEFQGQVLQDWLGLGIYGIQDSDTLILSKKKGEALFPAS

- binding [1]: no binding
B3: human OASL, two-hybrid prey (protein, UniProt Q15646 1-514)
chain: B2 chain with D81E, D83E, D152T
